Measured values from patent US20090035270A1, “COMBINATION THERAPY USING ANTI-ANGIOGENIC AGENTS AND TNF alpha” (priority 2001, published 2009).
At least one structure is not confirmed: it was looked up by name or label, or the drawing left a doubt.

Tested on: HUVEC
Format: cell-based
Conditions: wortmannin 100 nM; LY294002 20 μM; added 1 hour before stimulation
Experimental: To determine the effect of spheroid culture on cell viability, spheroids and fibronectin-adherent HUVEC were recovered between 6 and 72 hours after plating, serially diluted and further cultured for an additional 48 hours before relative cell number was determined. A shift-to-the left or a flattening of the dilution curve indicates decreased viability.
To test whether integrins modulate TNF-induced apoptosis, we cultured HUVEC on fibronectin (integrin-dependent adhesion) or as spheroids (integrin-independent adhesion) in the absence or presence of TNF (200 ng/ml) and of IFNγ (330 ng/ml), an enhancer of TNF cytotoxicity (Dealtry et al., Eur. J. Immunol. 17, 689-693 (1987)). […] To examine the effect of TNF±IFNγ on cell survival we determined the viability of untreated and treated cultures. […]
For survival, HUVEC spheroids plated at 1×10^6 cells/ml in 1% BSA-coated 24 mm wells, or adherent cells plated at 4×10^5 cells in 3 μg/ml fibronectin-coated 35 mm wells of non-tissue culture plates (Evergreen Scientific), were stimulated with TNFα (200 ng/ml=10^4 U/ml)±IFNγ (330 ng/ml=10^4 U/ml). […] Relative cell number was assessed 48 hours later by measuring MTT conversion during the last 4 hours of culture. […]

O=c1cc(N2CCOCC2)oc2c(-c3ccccc3)cccc12 [LY294002]
survival of fibronectin-adherent cells exposed to TNF±IFNγ with PI-3 kinase inhibitor: decreased survival
